Test results: patent US20180320217A1, “METHODS FOR SAMPLING AND MEASURING ORAL LAVAGE PROTEINS” (The Procter & Gamble Company, priority 2017, published 2018)

System: proteins in oral lavage
Assay: Abundance of proteins in human oral lavage (SomaLogic), TABLE 1
Type: in vivo
Settings: for Means (Original Scale) High bleeder BL / Means (Original Scale) High bleeder W4 / Means (Original Scale) Low bleeder BL: abundance in oral lavage; for Means (Original Scale) High bleeder BL: high bleeders (gingivitis); for Means (Original Scale) High bleeder BL / Means (Original Scale) Low bleeder BL: baseline; for Means (Original Scale) High bleeder W4 / Fold Change High bleeder W4 vs High bleeder BL: high bleeders; for Means (Original Scale) High bleeder W4: week 4 of investigative products; for Means (Original Scale) Low bleeder BL: low bleeders (healthy); for Fold Change High bleeder BL vs Low bleeder BL / Fold Change High bleeder W4 vs High bleeder BL: oral lavage; for Fold Change High bleeder BL vs Low bleeder BL: high bleeders vs low bleeders at baseline; for Fold Change High bleeder W4 vs High bleeder BL: week 4 of investigative products vs baseline

B1: Calpain I (protein, UniProt P07384 2-714; P04632 1-268, looked up)
Calpain-1 catalytic subunit: SEEIITPVYCTGVSAQVQKQRARELGLGRHENAIKYLGQDYEQLRVRCLQSGTLFRDEAFPPVPQSLGYKDLGPNSSKTYGIKWKRPTELLSNPQFIVDGATRTDICQGALGDCWLLAAIASLTLNDTLLHRVVPHGQSFQNGYAGIFHFQLWQFGEWVDVVVDDLLPIKDGKLVFVHSAEGNEFWSALLEKAYAKVNGSYEALSGGSTSEGFEDFTGGVTEWYELRKAPSDLYQIILKALERGSLLGCSIDISSVLDMEAITFKKLVKGHAYSVTGAKQVNYRGQVVSLIRMRNPWGEVEWTGAWSDSSSEWNNVDPYERDQLRVKMEDGEFWMSFRDFMREFTRLEICNLTPDALKSRTIRKWNTTLYEGTWRRGSTAGGCRNYPATFWVNPQFKIRLDETDDPDDYGDRESGCSFVLALMQKHRRRERRFGRDMETIGFAVYEVPPELVGQPAVHLKRDFFLANASRARSEQFINLREVSTRFRLPPGEYVVVPSTFEPNKEGDFVLRFFSEKSAGTVELDDQIQANLPDEQVLSEEEIDENFKALFRQLAGEDMEISVKELRTILNRIISKHKDLRTKGFSLESCRSMVNLMDRDGNGKLGLVEFNILWNRIRNYLSIFRKFDLDKSGSMSAYEMRMAIESAGFKLNKKLYELIITRYSEPDLAVDFDNFVCCLVRLETMFRFFKTLDTDLDGVVTFDLFKWLQLTMFA
Calpain small subunit 1: MFLVNSFLKGGGGGGGGGGGLGGGLGNVLGGLISGAGGGGGGGGGGGGGGGGGGGGTAMRILGGVISAISEAAAQYNPEPPPPRTHYSNIEANESEEVRQFRRLFAQLAGDDMEVSATELMNILNKVVTRHPDLKTDGFGIDTCRSMVAVMDSDTTGKLGFEEFKYLWNNIKRWQAIYKQFDTDRSGTICSSELPGAFEAAGFHLNEHLYNMIIRRYSDESGNMDFDNFISCLVRLDAMFRAFKSLDKDGTGQIQVNIQEWLQLTMYS
**Q.** With B1 as the molecule, how does the “Means (Original Scale) High bleeder BL” value read?
**A.** Its value is 112397.

**Q.** And the “Means (Original Scale) High bleeder W4” value?
**A.** Its value is 50592.

**Q.** And the “Means (Original Scale) Low bleeder BL” value?
**A.** The value was 25144.

**Q.** What about the “Fold Change High bleeder BL vs Low bleeder BL” value (“Fold Change High bleeder BL” for short) of the same molecule?
**A.** Its value is 5.97.

**Q.** And the “Fold Change High bleeder W4 vs High bleeder BL” value (“Fold Change High bleeder W4” for short)?
**A.** The value was 0.51.

B2: Carbohydrate sulfotransferase 15 (protein, UniProt Q7LFX5 1-561, looked up)
Carbohydrate sulfotransferase …: MRHCINCCIQLLPDGAHKQQVNCQGGPHHGHQACPTCKGENKILFRVDSKQMNLLAVLEVRTEGNENWGGFLRFKKGKRCSLVFGLIIMTLVMASYILSGAHQELLISSPFHYGGFPSNPSLMDSENPSDTKEHHHQSSVNNISYMKDYPSIKLIINSITTRIEFTTRQLPDLEDLKKQELHMFSVIPNKFLPNSKSPCWYEEFSGQNTTDPYLTNSYVLYSKRFRSTFDALRKAFWGHLAHAHGKHFRLRCLPHFYIIGQPKCGTTDLYDRLRLHPEVKFSAIKEPHWWTRKRFGIVRLRDGLRDRYPVEDYLDLFDLAAHQIHQGLQASSAKEQSKMNTIIIGEASASTMWDNNAWTFFYDNSTDGEPPFLTQDFIHAFQPNARLIVMLRDPVERLYSDYLYFASSNKSADDFHEKVTEALQLFENCMLDYSLRACVYNNTLNNAMPVRLQVGLYAVYLLDWLSVFDKQQFLILRLEDHASNVKYTMHKVFQFLNLGPLSEKQEALMTKSPASNARRPEDRNLGPMWPITQKILRDFYRPFNARLAQVLADEAFAWKTT
**Q.** B2 was tested. Which “Means (Original Scale) High bleeder BL” value did it give?
**A.** The value was 713.

**Q.** What about the “Means (Original Scale) High bleeder W4” value of the same molecule?
**A.** Its value is 348.

**Q.** And the “Means (Original Scale) Low bleeder BL” value?
**A.** Its value is 71.

**Q.** What about the “Fold Change High bleeder BL” value of the same molecule?
**A.** The value was 8.61.

**Q.** What about the “Fold Change High bleeder W4” value of the same molecule?
**A.** Its value is 0.60.

B3: Cathepsin F (protein, UniProt Q9UBX1 271-484, looked up)
Cathepsin F: APPEWDWRSKGAVTKVKDQGMCGSCWAFSVTGNVEGQWFLNQGTLLSLSEQELLDCDKMDKACMGGLPSNAYSAIKNLGGLETEDDYSYQGHMQSCNFSAEKAKVYINDSVELSQNEQKLAAWLAKRGPISVAINAFGMQFYRHGISRPLRPLCSPWLIDHAVLLVGYGNRSDVPFWAIKNSWGTDWGEKGYYYLHRGSGACGVNTMASSAVVD
**Q.** For B3, which “Means (Original Scale) High bleeder BL” value is on record?
**A.** The value was 8192.

**Q.** And the “Means (Original Scale) High bleeder W4” value?
**A.** The value was 3442.

**Q.** And the “Means (Original Scale) Low bleeder BL” value?
**A.** The value was 1136.

**Q.** And the “Fold Change High bleeder BL” value?
**A.** The value was 4.94.

**Q.** And the “Fold Change High bleeder W4” value?
**A.** The value was 0.59.

B4: Cathepsin S (protein, UniProt P25774 115-331, looked up)
Cathepsin S: LPDSVDWREKGCVTEVKYQGSCGACWAFSAVGALEAQLKLKTGKLVSLSAQNLVDCSTEKYGNKGCNGGFMTTAFQYIIDNKGIDSDASYPYKAMDQKCQYDSKYRAATCSKYTELPYGREDVLKEAVANKGPVSVGVDARHPSFFLYRSGVYYEPSCTQNVNHGVLVVGYGDLNGKEYWLVKNSWGHNFGEEGYIRMARNKGNHCGIASFPSYPEI
**Q.** How did the “Means (Original Scale) High bleeder BL” value turn out when B4 was run?
**A.** The value was 18016.

**Q.** And the “Means (Original Scale) High bleeder W4” value?
**A.** Its value is 9075.

**Q.** What about the “Means (Original Scale) Low bleeder BL” value of the same molecule?
**A.** The value was 2396.

**Q.** What about the “Fold Change High bleeder BL” value of the same molecule?
**A.** Its value is 7.16.

**Q.** And the “Fold Change High bleeder W4” value?
**A.** Its value is 0.65.

B5: CD166 antigen (protein, UniProt Q13740 28-583, looked up)
CD166 antigen: WYTVNSAYGDTIIIPCRLDVPQNLMFGKWKYEKPDGSPVFIAFRSSTKKSVQYDDVPEYKDRLNLSENYTLSISNARISDEKRFVCMLVTEDNVFEAPTIVKVFKQPSKPEIVSKALFLETEQLKKLGDCISEDSYPDGNITWYRNGKVLHPLEGAVVIIFKKEMDPVTQLYTMTSTLEYKTTKADIQMPFTCSVTYYGPSGQKTIHSEQAVFDIYYPTEQVTIQVLPPKNAIKEGDNITLKCLGNGNPPPEEFLFYLPGQPEGIRSSNTYTLTDVRRNATGDYKCSLIDKKSMIASTAITVHYLDLSLNPSGEVTRQIGDALPVSCTISASRNATVVWMKDNIRLRSSPSFSSLHYQDAGNYVCETALQEVEGLKKRESLTLIVEGKPQIKMTKKTDPSGLSKTIICHVEGFPKPAIQWTITGSGSVINQTEESPYINGRYYSKIIISPEENVTLTCTAENQLERTVNSLNVSAISIPEHDEADEISDENREKVNDQAKLIVGIVVGLLLAALVAGVVYWLYMKKSKTASKHVNKDLGNMEENKKLEENNHKTEA
**Q.** B5 was tested. Which “Means (Original Scale) High bleeder BL” value did it give?
**A.** Its value is 7301.

**Q.** What about the “Means (Original Scale) High bleeder W4” value of the same molecule?
**A.** Its value is 4033.

**Q.** What about the “Means (Original Scale) Low bleeder BL” value of the same molecule?
**A.** Its value is 2616.

**Q.** And the “Fold Change High bleeder BL” value?
**A.** The value was 2.50.

**Q.** And the “Fold Change High bleeder W4” value?
**A.** The value was 0.61.

B6: CD209 antigen (protein, UniProt Q9NNX6 1-404, looked up)
CD209 antigen: MSDSKEPRLQQLGLLEEEQLRGLGFRQTRGYKSLAGCLGHGPLVLQLLSFTLLAGLLVQVSKVPSSISQEQSRQDAIYQNLTQLKAAVGELSEKSKLQEIYQELTQLKAAVGELPEKSKLQEIYQELTRLKAAVGELPEKSKLQEIYQELTWLKAAVGELPEKSKMQEIYQELTRLKAAVGELPEKSKQQEIYQELTRLKAAVGELPEKSKQQEIYQELTRLKAAVGELPEKSKQQEIYQELTQLKAAVERLCHPCPWEWTFFQGNCYFMSNSQRNWHDSITACKEVGAQLVVIKSAEEQNFLQLQSSRSNRFTWMGLSDLNQEGTWQWVDGSPLLPSFKQYWNRGEPNNVGEEDCAEFSGNGWNDDKCNLAKFWICKKSAASCSRDEEQFLSPAPATPNPPPA
**Q.** Which “Means (Original Scale) High bleeder BL” value does the source give for B6 here?
**A.** Its value is 262.

**Q.** And the “Means (Original Scale) High bleeder W4” value?
**A.** Its value is 176.

**Q.** What about the “Means (Original Scale) Low bleeder BL” value of the same molecule?
**A.** Its value is 76.

**Q.** What about the “Fold Change High bleeder BL” value of the same molecule?
**A.** Its value is 3.22.

**Q.** And the “Fold Change High bleeder W4” value?
**A.** The value was 0.70.

B7: CD83 antigen (protein, UniProt Q01151 20-205, looked up)
CD83 antigen: TPEVKVACSEDVDLPCTAPWDPQVPYTVSWVKLLEGGEERMETPQEDHLRGQHYHQKGQNGSFDAPNERPYSLKIRNTTSCNSGTYRCTLQDPDGQRNLSGKVILRVTGCPAQRKEETFKKYRAEIVLLLALVIFYLTLIIFTCKFARLQSIFPDFSKAGMERAFLPVTSPNKHLGLVTPHKTELV
**Q.** With B7 as the molecule, how does the “Means (Original Scale) High bleeder BL” value read?
**A.** The value was 130.

**Q.** What about the “Means (Original Scale) High bleeder W4” value of the same molecule?
**A.** The value was 78.

**Q.** And the “Means (Original Scale) Low bleeder BL” value?
**A.** Its value is 52.

**Q.** What about the “Fold Change High bleeder BL” value of the same molecule?
**A.** Its value is 2.28.

**Q.** And the “Fold Change High bleeder W4” value?
**A.** Its value is 0.66.

B8: Coactosin-like protein (protein, UniProt Q14019 2-142, looked up)
Coactosin-like protein: ATKIDKEACRAAYNLVRDDGSAVIWVTFKYDGSTIVPGEQGAEYQHFIQQCTDDVRLFAFVRFTTGDAMSKRSKFALITWIGENVSGLQRAKTGTDKTLVKEVVQNFAKEFVISDRKELEEDFIKSELKKAGGANYDAQTE
**Q.** What does the source list for B8?
**A.** Means (Original Scale) High bleeder BL: 2271; Means (Original Scale) High bleeder W4: 1213; Means (Original Scale) Low bleeder BL: 512; Fold Change High bleeder BL vs Low bleeder BL: 3.84; Fold Change High bleeder W4 vs High bleeder BL: 0.60

B9: Complement C1r subcomponent (protein, UniProt P00736 18-705, looked up)
Complement C1r subcomponent: SIPIPQKLFGEVTSPLFPKPYPNNFETTTVITVPTGYRVKLVFQQFDLEPSEGCFYDYVKISADKKSLGRFCGQLGSPLGNPPGKKEFMSQGNKMLLTFHTDFSNEENGTIMFYKGFLAYYQAVDLDECASRSKSGEEDPQPQCQHLCHNYVGGYFCSCRPGYELQEDTHSCQAECSSELYTEASGYISSLEYPRSYPPDLRCNYSIRVERGLTLHLKFLEPFDIDDHQQVHCPYDQLQIYANGKNIGEFCGKQRPPDLDTSSNAVDLLFFTDESGDSRGWKLRYTTEIIKCPQPKTLDEFTIIQNLQPQYQFRDYFIATCKQGYQLIEGNQVLHSFTAVCQDDGTWHRAMPRCKIKDCGQPRNLPNGDFRYTTTMGVNTYKARIQYYCHEPYYKMQTRAGSRESEQGVYTCTAQGIWKNEQKGEKIPRCLPVCGKPVNPVEQRQRIIGGQKAKMGNFPWQVFTNIHGRGGGALLGDRWILTAAHTLYPKEHEAQSNASLDVFLGHTNVEELMKLGNHPIRRVSVHPDYRQDESYNFEGDIALLELENSVTLGPNLLPICLPDNDTFYDLGLMGYVSGFGVMEEKIAHDLRFVRLPVANPQACENWLRGKNRMDVFSQNMFCAGHPSLKQDACQGDSGGVFAVRDPNTDRWVATGIVSWGIGCSRGYGFYTKVLNYVDWIKKEMEEED
**Q.** B9 was tested. Which “Means (Original Scale) High bleeder BL” value did it give?
**A.** The value was 7672.

**Q.** And the “Means (Original Scale) High bleeder W4” value?
**A.** The value was 2780.

**Q.** What about the “Means (Original Scale) Low bleeder BL” value of the same molecule?
**A.** Its value is 918.

**Q.** What about the “Fold Change High bleeder BL” value of the same molecule?
**A.** Its value is 8.87.

**Q.** What about the “Fold Change High bleeder W4” value of the same molecule?
**A.** Its value is 0.52.
